Record: PubChem BioAssay AID504808 (Drosophila RNAi Screening Center, 2011)
Test: 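Fly genes required to hold E2F transcription in check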 (primary screen). System: Drosophila S2 cells. Reagents: long dsRNA against Drosophila genes. Measurement: 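Firefly luciferase driven by E2F sites, normalised to Renilla luciferase on the same minimal promoter, measured by plate reader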. Direction: E2F firefly: higher = more E2F reporter activity; Renilla normaliser: higher = more normaliser reporter signal. Rule for the call: 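Called active if the normalised E2F reporter went up by over 50%; the cutoff is arbitrary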.
The screen tested about 21,000 reagents; below is an unselected part of those with a known target gene and a result. Of all reagents, 18 (0.084%) got an active call. 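Raw counts without plate normalisation, one of two replicates; the ratio scores behind the calls were not deposited.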 Reagents against one gene are numbered here. A plus sign joins genes that one reagent is predicted to hit. Not given: the amount of reagent, the time to read-out.

gene | dsRNA no. | E2F firefly, rep 1 | Renilla normaliser, rep 1 | outcome
mid (midline) | 1 | 1.52e5 | 4819 | inactive
CG6356 | 1 | 1.02e5 | 6440 | inactive
CG14356 | 1 | 1.08e5 | 5923 | inactive
Dnai2 (dynein, axonemal, intermediate chain 2) | 1 | 1.07e5 | 3352 | inactive
Ntf-2r (Nuclear transport factor-2-related) | 1 | 85537 | 136 | inactive
phtm (phantom) | 1 | 1.19e5 | 6811 | inactive
CG33673 | 1 | 1.32e5 | 5685 | inactive
mRpS28 (mitochondrial ribosomal protein S28) | 1 | 1.43e5 | 5023 | inactive
per (period) | 1 | 1.32e5 | 5666 | inactive
Gbp3 (Growth-blocking peptide 3) | 1 | 98941 | 6001 | inactive
SPE (Spatzle-Processing Enzyme) | 1 | 75621 | 3492 | inactive
Rab9Db + Rab9D + Rab9E | 1 | 82232 | 3006 | inactive
CG14050 | 1 | 1.03e5 | 4986 | inactive
CG11585 | 1 | 2.19e5 | 7240 | inactive
Nubp1 (NUBP iron-sulfur cluster assembly factor 1) | 1 | 80937 | 194 | inactive
Ptpmeg (Protein tyrosine phosphatase Meg) | 1 | 84833 | 3346 | inactive
CG4629 | 1 | 1.69e5 | 5915 | inactive
dany (distal antenna-young) | 1 | 1.02e5 | 4025 | inactive
CG11807 | 1 | 75894 | 3276 | inactive
CecB (Cecropin B) | 1 | 1.05e5 | 5523 | inactive
cold (coiled) | 1 | 1.03e5 | 3751 | inactive
Bet1 (Blocked early in transport 1) | 1 | 1.36e5 | 6988 | inactive
Alp13 (Alkaline phosphatase 13) | 1 | 1.39e5 | 5812 | inactive
CG4872 | 1 | 1.63e5 | 6488 | inactive
CG5902 | 1 | 68686 | 3851 | inactive
CG3702 | 1 | 82738 | 3707 | inactive
so (sine oculis) | 1 | 69392 | 147 | inactive
CG12057 | 1 | 1.06e5 | 4885 | inactive
GluRIA (Glutamate receptor IA) | 1 | 1.03e5 | 3941 | inactive
CG17944 | 1 | 1.36e5 | 6653 | inactive
CG13738 | 1 | 1.17e5 | 7285 | inactive
CG5653 | 1 | 91762 | 3628 | inactive
betaNACtes2 (Nascent-associated complex beta-subunit-like, testis 2) | 1 | 2.41e5 | 7762 | inactive
Dhc64C (Dynein heavy chain 64C) | 1 | 78416 | 3595 | inactive
squ (squash) | 1 | 1.45e5 | 5445 | inactive
RSG7 (Regulator of G-protein signaling 7) | 1 | 1.67e5 | 6469 | inactive
CG4842 | 1 | 1.49e5 | 6043 | inactive
CG13438 | 1 | 91386 | 5036 | inactive
galene | 1 | 92959 | 4349 | inactive
galene | 2 | 1.01e5 | 4418 | inactive
CG10993 | 1 | 1.42e5 | 6274 | inactive

Next part (10 carried over from the part before).
gene | dsRNA no. | E2F firefly, rep 1 | Renilla normaliser, rep 1 | outcome
CG5653 | 1 | 91762 | 3628 | inactive
betaNACtes2 (Nascent-associated complex beta-subunit-like, testis 2) | 1 | 2.41e5 | 7762 | inactive
Dhc64C (Dynein heavy chain 64C) | 1 | 78416 | 3595 | inactive
squ (squash) | 1 | 1.45e5 | 5445 | inactive
RSG7 (Regulator of G-protein signaling 7) | 1 | 1.67e5 | 6469 | inactive
CG4842 | 1 | 1.49e5 | 6043 | inactive
CG13438 | 1 | 91386 | 5036 | inactive
galene | 1 | 92959 | 4349 | inactive
galene | 2 | 1.01e5 | 4418 | inactive
CG10993 | 1 | 1.42e5 | 6274 | inactive
Ccp84Af | 1 | 1.38e5 | 6780 | inactive
out (outsiders) | 1 | 1.64e5 | 5676 | inactive
CG32147 | 1 | 1.27e5 | 3773 | inactive
Adk1 (Adenosine kinase 1) | 1 | 1.42e5 | 5990 | inactive
CG10089 | 1 | 1.08e5 | 6279 | inactive
CG10089 | 2 | 1.33e5 | 6732 | inactive
CG11110 | 1 | 92970 | 4233 | inactive
CG7627 | 1 | 1.11e5 | 4696 | inactive
CG14153 | 1 | 1.18e5 | 6198 | inactive
CG7829 | 1 | 1.38e5 | 7722 | inactive
CG9451 | 1 | 1.31e5 | 6589 | inactive
l(3)72Dn (lethal (3) 72Dn) | 1 | 83995 | 3300 | inactive
Spt6 | 1 | 5458 | 728 | inactive
mub (mushroom-body expressed) | 1 | 82112 | 3426 | inactive
CG5787 | 1 | 82192 | 4258 | inactive
CG15423 | 1 | 1.42e5 | 4991 | inactive
ZIPIC (Zinc-finger protein interacting with CP190) | 1 | 1639 | 896 | inactive
CG9890 | 1 | 1.01e5 | 4549 | inactive
CG5556 | 1 | 1.69e5 | 6422 | inactive
Mob2 | 1 | 1.12e5 | 4297 | inactive
Mob2 | 2 | 1.39e5 | 4742 | inactive
Mob2 | 3 | 60519 | 3213 | inactive
CG7691 | 1 | 1.37e5 | 8135 | inactive
Gmppa (GDP-mannose pyrophosphorylase A) | 1 | 95077 | 4060 | inactive
HisRS (Histidyl-tRNA synthetase) | 1 | 1.44e5 | 5519 | inactive
btv (beethoven) | 1 | 1.28e5 | 5627 | inactive
btv (beethoven) | 2 | 1.00e5 | 4462 | inactive
CG16713 | 1 | 1.49e5 | 5340 | inactive
Swim (Secreted Wg-interacting molecule) | 1 | 81594 | 3426 | inactive
Gr59b (Gustatory receptor 59b) | 1 | 1.02e5 | 4424 | inactive
Tep4 (Thioester-containing protein 4) | 1 | 99526 | 4103 | inactive
CG3581 | 1 | 1.39e5 | 5973 | inactive
Cap-D3 (Chromosome associated protein D3) | 1 | 1.45e5 | 4977 | inactive
smog | 1 | 1.22e5 | 4935 | inactive
smog | 2 | 1.41e5 | 4877 | inactive
esn (espinas) | 1 | 1.45e5 | 5887 | inactive
esn (espinas) | 2 | 1.41e5 | 5204 | inactive
CG32683 | 1 | 1.33e5 | 5244 | inactive
CG32683 | 2 | 64398 | 5482 | inactive
CG32683 | 3 | 54310 | 4016 | inactive
CG13744 | 1 | 1.33e5 | 4647 | inactive
CG14017 | 1 | 1.36e5 | 4702 | inactive
CG14636 | 1 | 1.36e5 | 7273 | inactive
